These are yes or no findings as the source states them, for the method shown. Binding seen in cells or lysates may run through a third protein. For some of these results: Where a sequence is shown, tags or fusion partners need not be part of it. One block for each binder: values may come before it.
Assays:
[1] = target: BrxB with C-terminal Strep-tag II (Escherichia coli HS); experiment: pull-down; Strep-tagged protein and candidate partner produced in E. coli BW25113 from compatible plasmids (BREX- or BREX+ cells); clarified lysate on a StrepTrap HP column, washed with buffer A (150 mM NaCl, 1 mM EDTA, 100 mM Tris-HCl pH 8.0), eluted with desthiobiotin; SDS-PAGE, bands identified by MALDI-TOF mass spectrometry
[2] = target: BrxL with C-terminal Strep-tag II (Escherichia coli HS); experiment: as above
[3] = target: BrxZ with C-terminal Strep-tag II (Escherichia coli HS); experiment: as above
[4] = target: BrxZ with C-terminal Strep-tag II (Escherichia coli HS); experiment: pull-down; BW25113 cells with a BREX cluster carrying Strep-tagged BrxX or BrxZ, infected with wild-type T7 at MOI = 1 before harvest; clarified lysate on a StrepTrap HP column, buffer A (150 mM NaCl, 1 mM EDTA, 100 mM Tris-HCl pH 8.0), eluted with desthiobiotin; SDS-PAGE, bands identified by MALDI-TOF mass spectrometry

- binding [1]: no binding
- binding [2]: no binding
- binding [3]: no binding
B1: wild-type Ocr (untagged, produced from plasmid) (protein, UniProt P03775 1-117)
chain: MAMSNMTYNNVFDHAYEMLKENIRYDDIRDTDDLHDAIHMAADNAVPHYYADIFSVMASEGIDLEFEDSGLMPDTKDVIRILQARIYEQLTIDLWEDAEDLLNEYLEEVEEYEEDEE

- binding [4]: no binding
B2: Ocr synthesized in the course of infection with wild-type T7 (protein, UniProt P03775 1-117)
chain: B1 chain
